Our source for the binding values is US20110244493A1 (COMMONWEALTH MEDICAL COLLEGE, published 2011).

Chains of the proteins cited; added tags and fusions are not shown. Lines headed by an entry give the natural chain unless they say otherwise; changes in a name come on top.
UniProt Q9UIJ5: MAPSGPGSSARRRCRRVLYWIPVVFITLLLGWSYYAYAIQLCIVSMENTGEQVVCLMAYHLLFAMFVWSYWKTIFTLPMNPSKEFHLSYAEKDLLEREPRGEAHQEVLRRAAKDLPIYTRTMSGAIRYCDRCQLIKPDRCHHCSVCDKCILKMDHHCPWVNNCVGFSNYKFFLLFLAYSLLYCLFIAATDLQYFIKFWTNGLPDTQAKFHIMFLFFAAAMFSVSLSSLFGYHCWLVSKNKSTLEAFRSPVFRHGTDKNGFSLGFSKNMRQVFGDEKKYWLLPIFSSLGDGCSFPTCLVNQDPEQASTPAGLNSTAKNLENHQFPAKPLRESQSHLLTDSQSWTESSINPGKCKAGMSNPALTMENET
UniProt Q07065: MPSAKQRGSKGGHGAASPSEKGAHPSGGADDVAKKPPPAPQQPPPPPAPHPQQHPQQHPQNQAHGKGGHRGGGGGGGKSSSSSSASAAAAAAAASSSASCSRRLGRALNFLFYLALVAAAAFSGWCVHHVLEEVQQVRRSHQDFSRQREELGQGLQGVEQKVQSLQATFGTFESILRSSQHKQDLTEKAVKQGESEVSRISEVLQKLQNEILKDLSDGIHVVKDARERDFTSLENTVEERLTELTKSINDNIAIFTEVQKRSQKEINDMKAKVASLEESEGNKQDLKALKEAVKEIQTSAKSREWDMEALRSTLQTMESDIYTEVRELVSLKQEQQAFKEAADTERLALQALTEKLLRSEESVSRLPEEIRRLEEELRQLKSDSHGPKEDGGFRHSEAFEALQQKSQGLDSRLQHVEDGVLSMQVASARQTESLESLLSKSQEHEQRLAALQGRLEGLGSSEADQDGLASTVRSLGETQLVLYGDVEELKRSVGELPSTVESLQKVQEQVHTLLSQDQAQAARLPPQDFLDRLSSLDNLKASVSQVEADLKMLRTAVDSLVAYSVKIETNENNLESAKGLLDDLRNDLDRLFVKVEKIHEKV

These are yes or no findings as the source states them, for the method shown. Binding seen in cells or lysates may run through a third protein. Some binding calls cover weakened binding; strength is not graded here.

The experiment deals with CFP-tagged DHHC2 (Homo sapiens) (UniProt Q9UIJ5). Briefly: co-immunoprecipitation from HeLa lysates with anti-GFP mAb, Western blot with anti-CKAP4 antibody.

“cytoskeletal associated protein 4 (CKAP4), endogenous in HeLa or normal bladder epithelial cells (from UniProt Q07065 1-602) (receptor)”: the binding entry is “binds”.
